Measurements: PubChem BioAssay AID248 (DTP/NCI, 2004)
The list does not hold the whole screen: it is rich in T/C values a quarter to a half above the control, in often repeated tests (any T/C) and in doses without a T/C. Other doses and runs of a compound stand elsewhere. T/C is the treated group as % of the vehicle group. Some doses have a count of surviving animals in place of a T/C: the source files T/C as zero there, which appears to mark a toxic dose or a test without result, not a measured value. Some doses without a T/C left all or most animals alive at the check, yet need not have been tolerated: the source hardly ever lists a survival T/C far under the control, and the zero likely stands for such cases as well. Counts of survivors are from the toxicity check (mostly the fifth day) where no day follows; animals may have died later. Schedule codes are those of the source, read here as Q, the interval in days (D) or hours (H), X, the number of doses. Signs of the kind (2×) count equal records among those shown. Some entries hold several experiments; the results are listed from low to high. Where survival is the endpoint, this PubChem deposit counts one and a half times the control or more as active, and values a quarter to a half above the control carry no call in these data; other NCI protocols may use other cut-offs.

Test system: L1210 leukemia ip in BDF1 mice, survival T/C
Test: NCI In Vivo Anticancer Drug Screen. Data for tumor model L1210 Leukemia (intraperitoneal) in B6D2F1 (BDF1) mice
Conditions: T/C endpoint: mean survival time, higher T/C = longer survival
[1] = dose: 400.0 mg/kg/injection, schedule: Q01DX009 (ip), vehicle: Klucel (hydroxypropylcellulose) (HPC)
[2] = dose: 400.0 mg/kg/injection, schedule: Q01DX001 (ip), vehicle: saline

SMILES: O=[N+]([O-])c1ccc(C[Se]c2ncnc3c(C4OC(CO)C(O)C4O)[nH]nc23)cc1 (configuration not stated)
- survivor count (dose: 100.0 mg/kg/injection, schedule: Q01DX005 (ip), vehicle: saline): 0 of 6
- survivor count (dose: 200.0 mg/kg/injection, schedule: Q01DX005 (ip), vehicle: saline): 0 of 6

SMILES: CC(C)N(CCC#N)CN1C(=O)c2ccccc2C1=O
- survivor count [1]: 2 of 6

SMILES: O=S(=O)(Nc1c(Cl)c(Cl)c(Cl)c(Cl)c1NS(=O)(=O)c1ccccc1)c1ccccc1
- survivor count [1]: 6 of 6

SMILES: CCCCCCCN=C(N)c1ccc(C(=O)OCc2ccccc2)cc1
- survivor count [2]: 1 of 6

SMILES: CCC(=O)C(CCCN(C)C)(c1ccccc1)c1ccccc1
- survivor count (dose: 80.0 mg/kg/injection, schedule: Q01DX001 (ip), vehicle: saline): 0 of 6
- survivor count (dose: 100.0 mg/kg/injection, schedule: Q01DX001 (ip), vehicle: saline): 0 of 6
- survivor count (dose: 200.0 mg/kg/injection, schedule: Q01DX001 (ip), vehicle: saline): 0 of 6
- survivor count [2]: 0 of 6

SMILES: CCCCCCCCC(C)NCCOC(=O)c1ccc(N)cc1 (configuration not stated)
- survivor count (dose: 75.0 mg/kg/injection, schedule: Q01DX001 (ip), vehicle: other): 6 of 6
- survivor count (dose: 150.0 mg/kg/injection, schedule: Q01DX001 (ip), vehicle: other): 3 of 6
- survivor count (dose: 300.0 mg/kg/injection, schedule: Q01DX001 (ip), vehicle: other): 0 of 6

SMILES: CCCCCCCCCCCCCCCCCCNC(=O)c1c(Br)c(Br)cc(Br)c1C(=O)O
- T/C (dose: 100.0 mg/kg/injection, schedule: Q04DX002 (ip), vehicle: Klucel (hydroxypropylcellulose) (HPC)): 131 % of control

SMILES: CCCCCCCC/C=C\CCCCCCCC(=O)[O][Sn]([CH2]CCC)([CH2]CCC)[CH2]CCC
- survivor count (dose: 25.0 mg/kg/injection, schedule: Q01DX009 (ip), vehicle: saline with Tween-80): 0 of 3
- survivor count (dose: 50.0 mg/kg/injection, schedule: Q01DX009 (ip), vehicle: saline with Tween-80): 0 of 3
- survivor count (dose: 100.0 mg/kg/injection, schedule: Q01DX009 (ip), vehicle: saline with Tween-80): 0 of 3 and 0 of 6
- survivor count (dose: 200.0 mg/kg/injection, schedule: Q01DX009 (ip), vehicle: saline with Tween-80): 0 of 6
- survivor count (dose: 400.0 mg/kg/injection, schedule: Q01DX009 (ip), vehicle: saline with Tween-80): 0 of 6

SMILES: C=CCn1c2ccccc2c2cc3cnccc3c(C)c21
- survivor count (dose: 100.0 mg/kg/injection, schedule: Q04DX003 (ip), vehicle: Klucel (hydroxypropylcellulose) (HPC)): 3 of 6
- survivor count (dose: 200.0 mg/kg/injection, schedule: Q04DX003 (ip), vehicle: Klucel (hydroxypropylcellulose) (HPC)): 4 of 6
- survivor count (dose: 400.0 mg/kg/injection, schedule: Q04DX003 (ip), vehicle: Klucel (hydroxypropylcellulose) (HPC)): 2 of 6

SMILES: CCN(CC)CCCC(C)Nc1cccc2c1C(=O)c1cccc(NC(C)CCCN(CC)CC)c1C2=O (configuration not stated)
- survivor count (dose: 50.0 mg/kg/injection, schedule: Q01DX009 (ip), vehicle: saline): 0 of 3 and 1 of 3
- survivor count (dose: 100.0 mg/kg/injection, schedule: Q01DX009 (ip), vehicle: saline): 0 of 3
- survivor count (dose: 100.0 mg/kg/injection, schedule: Q04DX002 (ip), vehicle: saline): 1 of 3 and 3 of 3
- survivor count (dose: 200.0 mg/kg/injection, schedule: Q04DX002 (ip), vehicle: saline): 0 of 3 and 1 of 3
- survivor count (dose: 400.0 mg/kg/injection, schedule: Q04DX002 (ip), vehicle: saline): 0 of 3 (2×)

SMILES: Nc1ccc(/C=C2\C=Cc3ccccc32)cc1
- survivor count (dose: 75.0 mg/kg/injection, schedule: Q01DX001 (ip), vehicle: acetone): 2 of 6
- survivor count (dose: 75.0 mg/kg/injection, schedule: Q01DX009 (ip), vehicle: saline): 0 of 6
- survivor count (dose: 150.0 mg/kg/injection, schedule: Q01DX001 (ip), vehicle: acetone): 0 of 6
- survivor count (dose: 200.0 mg/kg/injection, schedule: Q01DX001 (ip), vehicle: olive oil, sesame oil, peanut oil): 3 of 6
- survivor count (dose: 400.0 mg/kg/injection, schedule: Q01DX001 (ip), vehicle: olive oil, sesame oil, peanut oil): 1 of 6

SMILES: O=C1OC(=C(Br)Br)C2C3C=CC(C3)C12 (configuration not stated)
- survivor count (dose: 400.0 mg/kg/injection, schedule: Q04DX003 (ip), vehicle: saline): 2 of 3
